According to PubChem BioAssay AID624297 (National Center for Advancing Translational Sciences (NCATS), 2012):
Hit rate of the full screen: of about 340,000 compounds, about 6,200 (1.8%) were called active. Inconclusive results, whose numbers are uncertain, are shown with a selection of clear calls. The call rests on the fitted dose curve; in most records, active means well fitted activation curve with a large enough effect; inconclusive means small, poorly fitted or top-dose-only effect; inactive means no such curve, though single readings can be large or run the other way. Potencies beside an inconclusive call are fits to weak or partial responses and may not hold up.

Assay: A quantitative high throughput screen for small molecules that induce DNA re-replication in SW480 colon adenocarcinoma cells. Further: nearly all actives have a fitted effect of over 55% in size. On re-replication activation: % of control where 0% means no effect.
Conditions: Hoechst DNA content imaging, 48 h; re-replication activation: at 46.1 µM (top of the series)
How it was run: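 Per well, 250 cells were exposed to pinned compound for 48 hr. Nuclear DNA was visualised with Hoechst (40 min, 37 C) and total object intensity recorded by fluorescence scanning.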
Potency means the concentration at half of the fitted maximal effect.

Row | Compound | Potency | re-replication activation
1 | Cc1cc(N2C(=O)C(O)=C(C(=O)c3cccs3)C2c2cccc(Br)c2)no1 (configuration not stated) | inconclusive: 3.66 µM [activator, single point] | –
2 | CCn1nc(NC(=O)c2ccncc2)c2cc3cc(C)ccc3nc21 | inconclusive: 29.1 µM [activator, single point] | –
3 | O=C(CSc1ccccc1)NNC(=O)c1ccccc1O | inconclusive: 29.1 µM [activator, single point] | –
4 | COc1ccc(CCn2c(SCC(=O)Nc3cc(C)on3)nc3ccsc3c2=O)cc1OC | inconclusive: 16.4 µM [activator, single point] | –
5 | CSc1nc2ccc(NC(=O)c3ccccn3)cc2s1 | inconclusive: 20.6 µM [activator, single point] | –
6 | CCCC(O)(c1ccc(CC)cc1)C(CN1CCOCC1)c1ccccc1 (configuration not stated) | – | inactive: 0.375%
7 | CCCCc1ccc(/C(C)=N/Nc2cc(N3CCOCC3)nc(C)n2)cc1 | inconclusive: 16.4 µM [activator, partial curve, poor fit] | –
8 | N#C/C(=C\c1cccc(NC(=O)c2ccccc2Cl)c1)C(=O)NCCc1ccccc1 | active: 18.4 µM | –
9 | CC(C)OCCCNC(=O)C1CCC(=O)N1C(C)C (configuration not stated) | inconclusive: 29.1 µM [activator, single point] | –
10 | COc1ccc(C(=O)c2cc(OC)c(OC)c(OC)c2)cc1OC | active: 3.66 µM | –
11 | COC(=O)c1ccc(COc2ccccc2/C=C(\C#N)C(=O)Nc2ccc(C)cc2C)cc1 | – | inactive: 15.4%
12 | O=C(CN1CCN(c2ncc(C(F)(F)F)cc2Cl)CC1)N1CCN(c2ncc(C(F)(F)F)cc2Cl)CC1 | inconclusive: 2.24 µM [activator, partial curve, poor fit] | –
13 | CCCNC(=O)c1cc2c3ccccc3n(C)c2s1 | – | inactive: 5.33%
14 | Cc1cccc(OCC(=O)NCc2ccc(F)cc2)c1 | inconclusive: 29.1 µM [activator, single point] | –
15 | O=C(N/N=C/c1cc([N+](=O)[O-])ccc1O)C1CCCCC1 | inconclusive: 16.4 µM [activator, single point] | –
16 | CCOC(=O)C1=C(CN2c3ccccc3CC2C)NC(=O)NC1c1ccccc1 (configuration not stated) | inconclusive: 29.1 µM [activator, single point] | –
17 | C=CCNC(=O)C(=O)Nc1cc2c3c(c1)CCC(=O)N3CCC2 | – | inactive: 0.92%
18 | CC(=O)N1CCCC(N2CCN(c3cccc(C(F)(F)F)c3)CC2)C1 (configuration not stated) | – | inactive: -15.5%
19 | CCN(CC)CC(=O)Nc1ccc2c(c1)N(C(=O)CN(CC)CC)c1ccccc1CC2 | inconclusive: 29.1 µM [activator, single point] | –
20 | COc1ccccc1OCCn1ccnc1 | inconclusive: 29.1 µM [activator, single point] | –
21 | O=C(Nc1ccccc1)/C(=C/c1cccc(Br)c1)NC(=O)c1ccco1 | inconclusive: 29.1 µM [activator, partial curve, poor fit] | –
22 | Cc1ccc(NC(=O)c2cc3c(s2)CCCC3)cc1S(=O)(=O)Nc1ccccc1Cl | inconclusive: 16.4 µM [activator, single point] | –
23 | CN(C)CCOc1ccc(-c2c(-c3ccccc3)sc3ccccc23)cc1 | inconclusive: 0.517 µM [activator, partial curve, poor fit] | –

Row | Compound | Potency | re-replication activation
24 | C/C(=N\NC(=O)c1cc(-c2ccc(Cl)s2)[nH]n1)c1ccncc1 | inconclusive: 29.1 µM [activator, single point] | –
25 | COc1ccc(C(=O)NCC(=O)N/N=C/C(C)=C/c2ccco2)cc1OC | inconclusive: 29.1 µM [activator, single point] | –
26 | Cc1cccc(NC(=S)NC(=O)/C=C/c2ccco2)n1 | – | inactive: 1.28%
27 | COc1ccc2nc(NC(=O)c3ccc(NC(=O)C4CCCO4)cc3)sc2c1 (configuration not stated) | inconclusive: 29.1 µM [activator, single point] | –
28 | COc1ccc(NS(=O)(=O)c2ccc3c(c2)OCCO3)cc1OC | – | inactive: 0.246%
29 | O=C(Nc1ncn[nH]1)c1ccccc1O | inconclusive: 18.4 µM [activator, single point] | –
30 | O=C1NC2(Nc3ccccc31)C(=O)Nc1ccc(Br)cc12 (configuration not stated) | – | inconclusive: 32.3% [activator]
31 | Cc1ccc(/C=C/C(=O)N2CCN(c3ncccn3)CC2)o1 | inconclusive: 29.1 µM [activator, single point] | –
32 | CCC(C)Sc1ccc(-c2nc3cc(C)ccn3c2NC2CCCCC2)cc1 (configuration not stated) | inconclusive: 29.1 µM [activator, single point] | –
33 | CCOC(=O)N1CCN(S(=O)(=O)c2ccc(C(=O)Nc3nnc(C4CC4)o3)cc2)CC1 | – | inactive: 11.6%
34 | C=CCOC(=O)N1CCC2CC1c1cc(-c3cccc(C)c3)ccc12 (configuration not stated) | – | inactive: -0.546%
35 | Cc1cc(NC(=O)C(C)Sc2nnc(NCc3ccco3)s2)no1 (configuration not stated) | inconclusive: 18.4 µM [activator, single point] | –
36 | CCc1ccc(O)c(N=Cc2ccccc2O)c1 | inconclusive: 29.1 µM [activator, single point] | –
37 | Cc1ccccc1NC(=O)Cn1nc(C)c2ccccc2c1=O | inconclusive: 29.1 µM [activator, single point] | –
38 | Cc1ccc(S(=O)(=O)N(C)C)cc1NC(=S)NCCc1ccccn1 | inconclusive: 11.6 µM [activator, single point] | –
39 | COc1cccc(C2C(C(=O)Nc3nc4ccccc4s3)=C(C)NC3=C2C(=O)CC(C)(C)C3)c1OC (configuration not stated) | inconclusive: 0.461 µM [activator, full curve, poor fit] | –
40 | O=C(Cc1csc(Nc2nc(=S)[nH]c3ccccc23)n1)NCc1ccccc1Cl | inconclusive: 13 µM [activator, partial curve, poor fit] | –
41 | Cc1ccc(S(=O)(=O)N2CCN(Cc3ccccc3)CC2)s1 | inconclusive: 3.26 µM [activator, partial curve] | –
42 | COc1ccc(Nc2ccccc2C(=O)O)cc1 | inconclusive: 29.1 µM [activator, partial curve, poor fit] | –
43 | NC1=NC(=O)/C(=C\c2ccco2)S1 | – | inactive: -9.19%
44 | O=c1c2sccc2nc(SCc2ccc([N+](=O)[O-])cc2)n1Cc1ccccn1 | – | inactive: -2.87%
45 | CCOC(=O)C1(Cc2cccc(OC)c2)CCN(C/C=C/c2ccc(OC)cc2)CC1 | inconclusive: 29.1 µM [activator, single point] | –
46 | CCOC(=O)C1CCCN(C(=O)c2ccc3c(c2)N(C)C(=O)/C(=C/c2ccccc2Cl)S3)C1 (configuration not stated) | inconclusive: 29.1 µM [activator, single point] | –

Row | Compound | Potency | re-replication activation
47 | CC(=O)Nc1ccc(S(=O)(=O)N2CCCC2C(=O)O)cc1 (configuration not stated) | inconclusive: 29.1 µM [activator, single point] | –
48 | O=C(N/N=C/c1cccnc1)c1cc(-c2cccs2)nc2ccccc12 | inconclusive: 23.1 µM [activator, single point] | –
49 | CCCCCCc1cc2cc(C(=O)Nc3cccc(OC)c3)c(=O)oc2cc1O | inconclusive: 1.64 µM [activator, partial curve, poor fit] | –
50 | COc1cc(CNCc2cccs2)ccc1OCc1ccccc1 | – | inactive: 7.05%
51 | CCCn1nc(NC(=O)C2CCCO2)c2cc3cc(C)ccc3nc21 (configuration not stated) | inconclusive: 29.1 µM [activator, single point] | –
52 | CCOc1cc(C(=O)N(C)Cc2cc3cc(OC)ccc3[nH]c2=O)cc(OCC)c1OCC | – | inactive: 14.7%
53 | O=C1CC(O)(C(F)(F)F)Oc2c1ccc1ccccc21 (configuration not stated) | inconclusive: 23.1 µM [activator, partial curve, poor fit] | –
54 | CCN(CC)c1ccc(/C=c2\sc3nc4ccccc4n3c2=O)c(O)c1 | active: 14.6 µM | –
55 | Fc1cccc(Nc2nc(N3CCOCC3)nc(N3CCOCC3)n2)c1 | inconclusive: 20.6 µM [activator, single point] | –
56 | CCC1Oc2ccc(C)cc2N(CC(=O)N(Cc2ccc(C)o2)C2CC(C)(C)NC(C)(C)C2)C1=O (configuration not stated) | inconclusive: 18.4 µM [activator, single point] | –
57 | COc1c(CC=C(C)C)c(O)cc2oc(=O)c3c4ccc(O)cc4oc3c12 | inconclusive: 18.4 µM [activator, single point] | –
58 | CCCC(=O)Nc1c2c(nn1-c1cccc(Cl)c1)CS(=O)(=O)C2 | inconclusive: 4.61 µM [activator, full curve, poor fit] | –
59 | Cc1ccc2cc3c(NC(=O)c4ccco4)nn(C)c3nc2c1 | inconclusive: 20.6 µM [activator, partial curve, poor fit] | –
60 | COc1ccc(CC(=O)Nc2ccc(-c3nnc(-c4ccc(C)cc4)o3)cc2)cc1 | inconclusive: 16.4 µM [activator, single point] | –
61 | CCCC(=O)Nc1ccc(NC(=O)c2ccccc2Cl)nc1 | inconclusive: 23.1 µM [activator, partial curve, poor fit] | –
62 | CN(C)C(CNC(=O)c1ccc(Cl)c(S(=O)(=O)N2CCCCCC2)c1)c1ccccc1 (configuration not stated) | inconclusive: 0.82 µM [activator, full curve, poor fit] | –
63 | COc1ccc(-c2cc(CNC(=O)CN(C)Cc3ccccc3)on2)cc1 | – | inactive: -6.45%
64 | Cc1cc(C)c(CSc2ncc(-c3ccc([N+](=O)[O-])cc3)[nH]2)c(C)c1 | inconclusive: 20.6 µM [activator, single point] | –
65 | CN(C)c1ccc(C(=S)Nc2ccccc2)cc1 | inconclusive: 1.46 µM [activator, full curve, poor fit] | –
66 | CCCC[n+]1ccn(-c2nc3ccccc3nc2[N-]S(=O)(=O)c2ccccc2)c1 | inconclusive: 29.1 µM [activator, single point] | –
67 | COc1cc(/C=C/c2ccc3cccc(O)c3n2)cc(OC)c1OC | – | inactive: 17.3%

A draw from above in order of length of the SMILES, rising:
Row | Compound | Potency | re-replication activation
51 | CCCn1nc(NC(=O)C2CCCO2)c2cc3cc(C)ccc3nc21 (configuration not stated) | inconclusive: 29.1 µM [activator, single point] | –
48 | O=C(N/N=C/c1cccnc1)c1cc(-c2cccs2)nc2ccccc12 | inconclusive: 23.1 µM [activator, single point] | –
58 | CCCC(=O)Nc1c2c(nn1-c1cccc(Cl)c1)CS(=O)(=O)C2 | inconclusive: 4.61 µM [activator, full curve, poor fit] | –
52 | CCOc1cc(C(=O)N(C)Cc2cc3cc(OC)ccc3[nH]c2=O)cc(OCC)c1OCC | – | inactive: 14.7%
56 | CCC1Oc2ccc(C)cc2N(CC(=O)N(Cc2ccc(C)o2)C2CC(C)(C)NC(C)(C)C2)C1=O (configuration not stated) | inconclusive: 18.4 µM [activator, single point] | –
